The test concerns the target ALG-1 (wild type) (C. elegans (endogenous in whole animals)) (UniProt G5EES3). In words: co-IP; ALG-1 immunoprecipitated with a custom ALG-1-specific polyclonal antibody (Anaspec) from whole protein lysate of wild type or alg-1(anti) animals; precipitate probed by Western blot with anti-ALG-1, anti-DCR-1 and anti-AIN-1; signals quantified as ratios to ALG-1 and normalised to wild type. A general note: A western blot detects proteins with antibodies after separation by electrophoresis.

Sequences of proteins named here, by UniProt entry; tags and fusion partners are left off.
UniProt G5EES3: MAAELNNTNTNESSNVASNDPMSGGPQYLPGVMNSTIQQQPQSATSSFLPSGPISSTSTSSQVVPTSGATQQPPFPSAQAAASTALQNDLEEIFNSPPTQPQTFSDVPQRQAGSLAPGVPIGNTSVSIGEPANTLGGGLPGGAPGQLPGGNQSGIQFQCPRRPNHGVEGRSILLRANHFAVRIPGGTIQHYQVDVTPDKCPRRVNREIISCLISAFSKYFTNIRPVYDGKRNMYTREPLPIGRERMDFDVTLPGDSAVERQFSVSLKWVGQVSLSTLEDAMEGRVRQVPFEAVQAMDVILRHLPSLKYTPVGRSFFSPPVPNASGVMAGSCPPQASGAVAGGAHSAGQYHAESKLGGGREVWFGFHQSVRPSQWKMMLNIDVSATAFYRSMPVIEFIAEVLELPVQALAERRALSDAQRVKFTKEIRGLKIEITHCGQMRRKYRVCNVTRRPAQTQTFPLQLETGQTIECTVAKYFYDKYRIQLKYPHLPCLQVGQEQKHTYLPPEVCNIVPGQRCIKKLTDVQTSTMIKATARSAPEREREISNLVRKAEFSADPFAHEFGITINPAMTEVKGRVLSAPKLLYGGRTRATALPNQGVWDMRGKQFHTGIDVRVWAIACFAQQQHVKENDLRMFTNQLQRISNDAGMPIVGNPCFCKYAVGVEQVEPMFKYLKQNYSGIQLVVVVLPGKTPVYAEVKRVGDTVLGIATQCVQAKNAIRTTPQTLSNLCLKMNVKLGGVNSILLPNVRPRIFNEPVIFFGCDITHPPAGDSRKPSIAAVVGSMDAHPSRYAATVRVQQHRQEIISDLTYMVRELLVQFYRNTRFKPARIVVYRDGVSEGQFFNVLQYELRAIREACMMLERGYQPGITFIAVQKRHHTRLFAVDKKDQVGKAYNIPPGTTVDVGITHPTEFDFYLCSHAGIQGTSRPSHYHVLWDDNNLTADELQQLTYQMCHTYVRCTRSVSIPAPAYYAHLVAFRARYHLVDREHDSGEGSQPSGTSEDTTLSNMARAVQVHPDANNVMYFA
UniProt P34529: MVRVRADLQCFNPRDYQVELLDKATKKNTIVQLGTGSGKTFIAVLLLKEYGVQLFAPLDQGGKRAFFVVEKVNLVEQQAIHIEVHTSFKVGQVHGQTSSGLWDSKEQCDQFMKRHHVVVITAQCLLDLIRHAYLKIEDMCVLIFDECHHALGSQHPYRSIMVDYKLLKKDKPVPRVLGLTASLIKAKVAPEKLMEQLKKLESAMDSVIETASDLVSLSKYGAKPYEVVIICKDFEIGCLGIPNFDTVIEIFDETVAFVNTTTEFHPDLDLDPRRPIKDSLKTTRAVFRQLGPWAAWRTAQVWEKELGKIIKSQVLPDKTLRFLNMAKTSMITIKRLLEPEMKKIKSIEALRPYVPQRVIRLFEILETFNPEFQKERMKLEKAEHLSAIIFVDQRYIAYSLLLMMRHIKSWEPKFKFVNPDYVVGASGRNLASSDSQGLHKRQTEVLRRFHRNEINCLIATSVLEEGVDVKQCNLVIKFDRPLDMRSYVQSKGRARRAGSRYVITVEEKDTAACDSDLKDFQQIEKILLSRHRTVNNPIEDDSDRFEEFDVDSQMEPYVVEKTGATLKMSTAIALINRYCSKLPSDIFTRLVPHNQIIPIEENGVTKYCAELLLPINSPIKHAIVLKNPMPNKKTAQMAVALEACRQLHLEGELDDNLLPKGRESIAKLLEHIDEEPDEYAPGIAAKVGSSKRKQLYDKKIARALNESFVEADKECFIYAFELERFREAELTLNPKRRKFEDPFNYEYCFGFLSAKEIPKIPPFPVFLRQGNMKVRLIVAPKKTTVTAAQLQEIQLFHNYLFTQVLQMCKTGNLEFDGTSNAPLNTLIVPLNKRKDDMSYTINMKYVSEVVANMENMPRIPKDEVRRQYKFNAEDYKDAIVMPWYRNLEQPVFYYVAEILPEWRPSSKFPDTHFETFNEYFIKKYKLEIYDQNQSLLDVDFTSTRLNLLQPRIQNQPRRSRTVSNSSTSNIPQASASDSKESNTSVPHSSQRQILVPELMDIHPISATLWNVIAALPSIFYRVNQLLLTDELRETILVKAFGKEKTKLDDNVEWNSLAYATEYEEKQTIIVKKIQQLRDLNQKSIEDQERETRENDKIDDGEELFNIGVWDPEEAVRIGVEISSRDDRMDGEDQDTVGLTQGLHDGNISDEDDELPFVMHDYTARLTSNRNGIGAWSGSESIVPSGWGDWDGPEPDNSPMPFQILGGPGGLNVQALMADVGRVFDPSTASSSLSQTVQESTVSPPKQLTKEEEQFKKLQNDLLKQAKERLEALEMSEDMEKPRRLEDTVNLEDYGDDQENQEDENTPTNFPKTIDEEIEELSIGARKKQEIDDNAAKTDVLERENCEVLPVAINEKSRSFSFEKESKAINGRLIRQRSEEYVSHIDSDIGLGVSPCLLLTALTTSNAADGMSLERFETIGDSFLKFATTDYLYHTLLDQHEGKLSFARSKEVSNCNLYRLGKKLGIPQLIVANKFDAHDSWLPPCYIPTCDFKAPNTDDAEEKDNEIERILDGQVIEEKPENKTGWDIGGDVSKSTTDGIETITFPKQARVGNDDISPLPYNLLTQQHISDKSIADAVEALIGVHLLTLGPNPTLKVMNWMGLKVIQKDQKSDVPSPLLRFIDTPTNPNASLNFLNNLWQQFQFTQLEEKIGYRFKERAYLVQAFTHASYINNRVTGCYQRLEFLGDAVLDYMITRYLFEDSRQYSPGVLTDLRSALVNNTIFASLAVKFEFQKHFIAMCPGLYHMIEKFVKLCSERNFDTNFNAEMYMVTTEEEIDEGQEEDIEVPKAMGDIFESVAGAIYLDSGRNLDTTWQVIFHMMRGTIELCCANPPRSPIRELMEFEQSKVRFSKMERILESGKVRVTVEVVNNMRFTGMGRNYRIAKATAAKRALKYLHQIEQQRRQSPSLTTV

Binding data for one substance are collected here from article PMC3998888.

These are yes or no findings as the source states them, for the method shown. Binding seen in cells or lysates may run through a third protein. Some results given as binding are weak or reduced against the parent protein; the word gives no strength.

With “DCR-1 (Dicer) (from UniProt P34529 1-1910) (enzyme)”, the binding result is given as “binds”.
